Test results: article PMC8384837
This is one part of the list. At the low end of the ranking the order means little.

These sequences were tested against T1, PUM1 PUF domain R1-QFR R2-VFQ R6-SWD S863Q + R864F + Q867R + N899V + Y900F + N1043S + Y1044W + Q1047D (UniProt Q14671). Conditions: yeast three-hybrid, YBZ-1, SC-Leu-His + 0.5 mM 3-AT, 4 days.
T1 sequence: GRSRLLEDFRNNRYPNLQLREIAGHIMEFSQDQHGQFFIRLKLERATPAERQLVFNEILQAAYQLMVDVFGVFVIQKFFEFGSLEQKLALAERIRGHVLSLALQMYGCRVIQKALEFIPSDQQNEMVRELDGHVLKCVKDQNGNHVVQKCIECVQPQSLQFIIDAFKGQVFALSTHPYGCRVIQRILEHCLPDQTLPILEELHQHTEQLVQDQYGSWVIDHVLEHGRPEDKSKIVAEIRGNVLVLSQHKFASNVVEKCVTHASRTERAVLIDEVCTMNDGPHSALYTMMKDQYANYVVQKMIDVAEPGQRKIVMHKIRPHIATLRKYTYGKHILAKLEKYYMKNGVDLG
“GGCUAGAACUAGUGGAUCCCCCGGCGCCCGGCGGCUCGAGCCCGGGUAAGUGGAAGAUGUCUGCAUGCCGCCGGGCGCCAUGCCUGCAGGUCGACUCUAGAAAACAUG” gave a binding signal (log2 enrichment (interaction score)) of -6.37. For “GGCUAGAACUAGUGGAUCCCCCGGCGCCCGGCGGCUCGAGCCCGGGUAAGUUUAAAUAGUCUGCAUGCCGCCGGGCGCCAUGCCUGCAGGUCGACUCUAGAAAACAUG”, the binding signal (log2 enrichment (interaction score)) was -6.22. With “GGCUAGAACUAGUGGAUCCCCCGGCGCCCGGCGGCUCGAGCCCGGGUAAGUGUACGAAGUCUGCAUGCCGCCGGGCGCCAUGCCUGCAGGUCGACUCUAGAAAACAUG” the binding signal (log2 enrichment (interaction score)) was -6.31. Sequence “GGCUAGAACUAGUGGAUCCCCCGGCGCCCGGCGGCUCGAGCCCGGGUAAGUGCUAGAAGUCUGCAUGCCGCCGGGCGCCAUGCCUGCAGGUCGACUCUAGAAAACAUG” has a binding signal (log2 enrichment (interaction score)) of -6.22. With “GGCUAGAACUAGUGGAUCCCCCGGCGCCCGGCGGCUCGAGCCCGGGUAAGCAUCGGUAGUCUGCAUGCCGCCGGGCGCCAUGCCUGCAGGUCGACUCUAGAAAACAUG” the binding signal (log2 enrichment (interaction score)) was -6.39. With “GGCUAGAACUAGUGGAUCCCCCGGCGCCCGGCGGCUCGAGCCCGGGUAAGUAUAGCUAGUCUGCAUGCCGCCGGGCGCCAUGCCUGCAGGUCGACUCUAGAAAACAUG” the binding signal (log2 enrichment (interaction score)) was -5.83. “GGCUAGAACUAGUGGAUCCCCCGGCGCCCGGCGGCUCGAGCCCGGGUAAGUUGGAUCAGUCUGCAUGCCGCCGGGCGCCAUGCCUGCAGGUCGACUCUAGAAAACAUG” gave a binding signal (log2 enrichment (interaction score)) of -6.18. For “GGCUAGAACUAGUGGAUCCCCCGGCGCCCGGCGGCUCGAGCCCGGGUAAGCUGGCGUAGUCUGCAUGCCGCCGGGCGCCAUGCCUGCAGGUCGACUCUAGAAAACAUG”, the binding signal (log2 enrichment (interaction score)) was -5.25. With “GGCUAGAACUAGUGGAUCCCCCGGCGCCCGGCGGCUCGAGCCCGGGUAAGUGGACGACGUCUGCAUGCCGCCGGGCGCCAUGCCUGCAGGUCGACUCUAGAAAACAUG” the binding signal (log2 enrichment (interaction score)) was -5.73. “GGCUAGAACUAGUGGAUCCCCCGGCGCCCGGCGGCUCGAGCCCGGGUAAGUUGGGGAAGUCUGCAUGCCGCCGGGCGCCAUGCCUGCAGGUCGACUCUAGAAAACAUG” was tested, and the binding signal (log2 enrichment (interaction score)) was -4.13. For “GGCUAGAACUAGUGGAUCCCCCGGCGCCCGGCGGCUCGAGCCCGGGUAAGUGUAAAUAGUCUGCAUGCCGCCGGGCGCCAUGCCUGCAGGUCGACUCUAGAAAACAUG”, the binding signal (log2 enrichment (interaction score)) was -5.76. “GGCUAGAACUAGUGGAUCCCCCGGCGCCCGGCGGCUCGAGCCCGGGUAAGUCAGUAGAGUCUGCAUGCCGCCGGGCGCCAUGCCUGCAGGUCGACUCUAGAAAACAUG” was tested, and the binding signal (log2 enrichment (interaction score)) was -5.82. Work on “GGCUAGAACUAGUGGAUCCCCCGGCGCCCGGCGGCUCGAGCCCGGGUAAGUGGACGUAGUCUGCAUGCCGCCGGGCGCCAUGCCUGCAGGUCGACUCUAGAAAACAUG” yielded a binding signal (log2 enrichment (interaction score)) of -6.17. With “GGCUAGAACUAGUGGAUCCCCCGGCGCCCGGCGGCUCGAGCCCGGGUAAGCUCUAAUUGUCUGCAUGCCGCCGGGCGCCAUGCCUGCAGGUCGACUCUAGAAAACAUG” the binding signal (log2 enrichment (interaction score)) was -5.37. “GGCUAGAACUAGUGGAUCCCCCGGCGCCCGGCGGCUCGAGCCCGGGUAAGUUGGAAUAGUCUGCAUGCCGCCGGGCGCCAUGCCUGCAGGUCGACUCUAGAAAACAUG” gave a binding signal (log2 enrichment (interaction score)) of -6.26. “GGCUAGAACUAGUGGAUCCCCCGGCGCCCGGCGGCUCGAGCCCGGGUAAGUCUGUAACGUCUGCAUGCCGCCGGGCGCCAUGCCUGCAGGUCGACUCUAGAAAACAUG” gave a binding signal (log2 enrichment (interaction score)) of -6.04. Work on “GGCUAGAACUAGUGGAUCCCCCGGCGCCCGGCGGCUCGAGCCCGGGUAAGUUGACGUAGUCUGCAUGCCGCCGGGCGCCAUGCCUGCAGGUCGACUCUAGAAAACAUG” yielded a binding signal (log2 enrichment (interaction score)) of -5.37. For “GGCUAGAACUAGUGGAUCCCCCGGCGCCCGGCGGCUCGAGCCCGGGUAAGUUGACGACGUCUGCAUGCCGCCGGGCGCCAUGCCUGCAGGUCGACUCUAGAAAACAUG”, the binding signal (log2 enrichment (interaction score)) was -6.42. “GGCUAGAACUAGUGGAUCCCCCGGCGCCCGGCGGCUCGAGCCCGGGUAAGUGGAGGUAGUCUGCAUGCCGCCGGGCGCCAUGCCUGCAGGUCGACUCUAGAAAACAUG” was tested, and the binding signal (log2 enrichment (interaction score)) was < -7.81. With “GGCUAGAACUAGUGGAUCCCCCGGCGCCCGGCGGCUCGAGCCCGGGUAAGUUGACGAGGUCUGCAUGCCGCCGGGCGCCAUGCCUGCAGGUCGACUCUAGAAAACAUG” the binding signal (log2 enrichment (interaction score)) was -5.2. “GGCUAGAACUAGUGGAUCCCCCGGCGCCCGGCGGCUCGAGCCCGGGUAAGUGUACGACGUCUGCAUGCCGCCGGGCGCCAUGCCUGCAGGUCGACUCUAGAAAACAUG” showed a binding signal (log2 enrichment (interaction score)) of -2.41. “GGCUAGAACUAGUGGAUCCCCCGGCGCCCGGCGGCUCGAGCCCGGGUAAGUGGAAAUAGUCUGCAUGCCGCCGGGCGCCAUGCCUGCAGGUCGACUCUAGAAAACAUG” gave a binding signal (log2 enrichment (interaction score)) of -6.19. “GGCUAGAACUAGUGGAUCCCCCGGCGCCCGGCGGCUCGAGCCCGGGUAAGUGAAAAUAGUCUGCAUGCCGCCGGGCGCCAUGCCUGCAGGUCGACUCUAGAAAACAUG” gave a binding signal (log2 enrichment (interaction score)) of -6.09. “GGCUAGAACUAGUGGAUCCCCCGGCGCCCGGCGGCUCGAGCCCGGGUAAGUGGACAUCGUCUGCAUGCCGCCGGGCGCCAUGCCUGCAGGUCGACUCUAGAAAACAUG” gave a binding signal (log2 enrichment (interaction score)) of -5.94. Sequence “GGCUAGAACUAGUGGAUCCCCCGGCGCCCGGCGGCUCGAGCCCGGGUAAGUUGAAGUAGUCUGCAUGCCGCCGGGCGCCAUGCCUGCAGGUCGACUCUAGAAAACAUG” has a binding signal (log2 enrichment (interaction score)) of -6.36. Sequence “GGCUAGAACUAGUGGAUCCCCCGGCGCCCGGCGGCUCGAGCCCGGGUAAGUGUAAAUCGUCUGCAUGCCGCCGGGCGCCAUGCCUGCAGGUCGACUCUAGAAAACAUG” has a binding signal (log2 enrichment (interaction score)) of -6.28. Work on “GGCUAGAACUAGUGGAUCCCCCGGCGCCCGGCGGCUCGAGCCCGGGUAAGAUGAAAUCGUCUGCAUGCCGCCGGGCGCCAUGCCUGCAGGUCGACUCUAGAAAACAUG” yielded a binding signal (log2 enrichment (interaction score)) of -6.5.
